This assay is described as follows: qHTS Assay to Find Inhibitors of Chronic Active B-Cell Receptor Signaling. The settings on record: ABC-DLBCL IkBa-CBG/CBR reporter, luminescence ratio (green luciferase fused to IkBa over red control in TMD8 lymphoma cells), 4 h. The method, boiled down: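 Concentration-response series (up to 46 uM) were applied to TMD8 dual-reporter cells for 4 h at 37C with doxycycline. Green/red ratio, after filter-overlap correction, defined %Activity; red signal alone was normalised to basal cells and zero luminescence.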
For orientation: qHTS replaces the single test concentration by a dilution series.

The mark [1] stands for this setting: measured here: CBR red luminescence, cell number.
[2] abbreviates: measured here: IkBa-CBG green luminescence.

The structures appear in SMILES notation. The list shows a part of the results. Further columns of the screen follow, without active or inactive calls. Most of these compounds were active or inconclusive in the main read-out, so they are no random draw. The note in brackets gives the kind of curve behind each potency; many fits are weak.

Here are results for 62 compounds from PubChem BioAssay AID493014 (National Center for Advancing Translational Sciences (NCATS), 2011).

Broadly, the AC50 is the midpoint of the concentration-response curve, whichever way the signal moves. Take `CCc1c(O)nc(SCC(=O)Nc2nc3ccccc3s2)n(-c2ccccc2)c1=O`: the AC50 under setting [1] was 7.08 µM [falling, partial curve].

Consider `Cc1ccc(S(=O)(=O)Nc2cccc3ncccc23)s1`, for which the AC50 is 2 µM [rising, full curve] under setting [1] and 2.82 µM [falling, partial curve] under setting [2].

With `COCCN(C(=O)COC(=O)CSc1ccccc1)c1c(N)n(Cc2ccccc2)c(=O)[nH]c1=O`, the AC50 under setting [1] was 0.164 µM [falling, full curve, poor fit].

On to `Cc1ccc(COC(=O)CCc2nc3ccccc3c(=O)[nH]2)cc1`, for which the AC50 under setting [1] is 4.11 µM [rising, partial curve, poor fit].

On to `CCOc1ccccc1NC(=O)CSc1nnc2[nH]c(=O)cc(-c3ccccc3)n12`, for which the AC50 under setting [1] is 2.24 µM [falling, full curve, poor fit].

In the case of `COC(=O)CN1C(=S)N(Cc2ccccc2)C(=O)C1CC(=O)Nc1ccc(Br)cc1` (configuration not stated), the AC50 under setting [1] was 12.6 µM [falling, partial curve].

Consider `COc1cc(/C(C)=N/Nc2ccc(C(=O)O)cc2)cc(OC)c1OC`, for which the AC50 under setting [1] was 0.326 µM [falling, full curve].

In the case of `CCCCn1c(=O)n(C)c(=O)c2c(C(F)(F)F)cc(-c3ccncc3)nc21`, the AC50 under setting [1] was 2.31 µM [falling, full curve, poor fit].

For the compound `NNC(=O)c1cc2cc3ccccc3nc2s1`, the AC50 under setting [1] is 2 µM [falling, partial curve, poor fit].

Take `CCc1cc2c(=O)c(-c3ccc4c(c3)OCCO4)coc2cc1OC(=O)c1ccco1`: the AC50 under setting [1] is 23.1 µM [rising, single point].

As to `Cc1ccccc1NC(=O)c1cc(S(=O)(=O)N2CCCCC2)cs1`, under setting [1], the AC50 is 6.51 µM [falling, single point].

Consider `CC(C)(C)c1ccccc1NC(=S)NC1CCCCC1`, for which the AC50 under setting [1] was 0.501 µM [rising, full curve].

With `CC(=O)Nc1cccc(NC(=O)c2cc([N+](=O)[O-])ccc2N2CCCCC2)c1`, under setting [1], the AC50 is 2.59 µM [rising, full curve, poor fit].

Turning to `COc1ccc(-c2nc(C#N)c(NC(C)C)o2)cc1`, the AC50 under setting [1] is 35.5 µM [rising, single point].

In the case of `COc1cc(/C=C/C2=CC(C)(C)NC(=S)N2)cc(OC)c1OC`, the AC50 under setting [1] is 2 µM [falling, full curve].

`CCN(CC)c1nc(C(N)=O)cc(-c2ccccc2)n1`: the AC50 under setting [1] was 3.55 µM [falling, partial curve, poor fit].

As to `CCC(=O)Nc1nc(C)c(-c2csc(Nc3cccc(C(=O)O)c3)n2)s1`, the AC50 under setting [1] is 11.2 µM [falling, partial curve].

As for `CCOC(=O)N1CCN(Cc2nc(N)nc(Nc3ccc(C)cc3C)n2)CC1`, the concentration at half-maximal activity (AC50) under setting [1] was 35.5 µM [rising, single point].

In the case of `COc1ccc(CN(C#N)c2nc(C)cc(C)n2)cc1`, under setting [2], the AC50 was 17.8 µM [falling, partial curve, poor fit].

For the compound `O=C(Nc1ccc(Cl)cc1)Nc1nc(-c2ccccc2O)cs1`, the AC50 under setting [1] is 4.47 µM [falling, partial curve, poor fit].

For the compound `O=c1[nH]c2ccc(NCc3ccc(OCc4ccccc4Cl)cc3)cc2[nH]1`, under setting [1], the AC50 is 35.5 µM [falling, single point].

In the case of `Cc1cccc2c1-c1sc(C(=O)Nc3cccc([N+](=O)[O-])c3C)cc1CO2`, the AC50 under setting [1] is 16.4 µM [falling, partial curve].

For `COc1ccc(/C=N/NC(=O)c2ccc(N)cc2)cc1Cn1cc([N+](=O)[O-])cn1`, the AC50 under setting [1] is 2 µM [falling, full curve].

In the case of `COc1ccc(-c2ccc3ccccc3n2)cc1OC`, under setting [1], the AC50 is 0.631 µM [rising, full curve, poor fit].

Regarding `CCC1CCCCN1C(=O)CSc1nnc(-c2cccc(Cl)c2)o1` (configuration not stated), the AC50 under setting [2] is 20.6 µM [rising, partial curve, poor fit].

Take `COc1ccc(-c2cnn3c4c(c(C)nc23)CCN4C(C)C)cc1OC`: under setting [1], the concentration at half-maximal activity (AC50) was 1.84 µM [rising, full curve, poor fit].

For `COc1ccc(-n2nc(C(=O)NCC(=O)NC(C)C)c3ccccc3c2=O)c(OC)c1`, the half-maximal activity concentration (AC50) under setting [1] was 10 µM [rising, partial curve].

`O=C(NCc1ccc(Cl)cc1)c1ccc(-c2ccccc2C(F)(F)F)o1`: the AC50 under setting [1] was 23.1 µM [falling, partial curve].

Consider `COc1ccc(/C=N/N=C(\N)c2nonc2N)cc1`, for which the AC50 under setting [1] was 14.1 µM [falling, partial curve].

Turning to `CCOc1ccc(C(C)=O)cc1COC(=O)c1cnc(Cl)c(Cl)c1`, under setting [1], the AC50 was 0.794 µM [rising, full curve, poor fit].

In the case of `C=CCn1c(SCC(=O)c2ccc(O)c(O)c2)nnc1-c1ccccc1OC`, under setting [1], the half-maximal activity concentration (AC50) was 10 µM [falling, partial curve].

For the compound `Cc1ccc(NC(=O)c2ccccc2NS(=O)(=O)c2ccc(Cl)s2)cc1S(=O)(=O)N1CCOCC1`, under setting [1], the AC50 was 29.1 µM [falling, single point].

For `Cc1nn(C)c(C)c1NS(=O)(=O)c1ccc(Cl)cc1`, the AC50 under setting [1] is 32.6 µM [rising, partial curve, poor fit].

As for `Cc1nn2c3ccccc3n(C)c2nc1=O`, the AC50 under setting [1] was 29.1 µM [rising, partial curve, poor fit].

Take `O=C1NCCC/C1=N\Nc1ccc(Br)cc1`: the AC50 under setting [1] was 2.82 µM [rising, partial curve, poor fit].

Regarding `O=C(CC(C(=O)O)P(=O)(c1ccccc1)c1ccccc1)c1ccc(Br)cc1` (configuration not stated), the AC50 under setting [1] was 3.98 µM [falling, partial curve, poor fit].

Turning to `CNS(=O)(=O)c1cc(NC(C)=O)c(C)cc1C`, under setting [1], the AC50 is 23.1 µM [rising, partial curve, poor fit].

Consider `COC(=O)c1ccc(C2/C(=C(/O)c3ccc(Cl)cc3)C(=O)C(=O)N2C2CCS(=O)(=O)C2)cc1` (configuration not stated), for which, under setting [1], the half-maximal activity concentration (AC50) was 7.94 µM [falling, partial curve, poor fit].

As for `CC(=O)Nc1ccc2c(c1)nc1n2CCN(C2CCCCC2)C1`, the AC50 under setting [1] was 3.55 µM [rising, partial curve, poor fit].

With `Cc1ccc(S(=O)(=O)N2CCOCC2)cc1NC(=O)COc1cccc(Oc2ccccc2)c1`, under setting [1], the AC50 was 29.1 µM [falling, single point].

`COc1ccc(NC(=O)c2ccccn2)cc1OC`: the AC50 under setting [1] is 11.6 µM [falling, partial curve].

In the case of `Fc1cc(Br)cc(F)c1NC(=S)N1CCOCC1`, the half-maximal activity concentration (AC50) under setting [1] is 14.1 µM [rising, single point].

Turning to `CCOC(=O)c1c(SCC(=O)Nc2nc3ccccc3s2)nc(=O)[nH]c1C`, the concentration at half-maximal activity (AC50) under setting [1] was 0.562 µM [falling, full curve].

With `Cc1cccc(-c2nc3scc(CCNS(=O)(=O)c4c(C)noc4C)n3n2)c1`, the AC50 under setting [1] was 17.8 µM [falling, single point].

As to `Cc1ccc2c(c1)c(=O)c1c3n2CCN(C(=O)CCl)C3CC1` (configuration not stated), the concentration at half-maximal activity (AC50) under setting [1] was 8.2 µM [falling, partial curve, poor fit].

With `O=C(NCCCN=C1NS(=O)(=O)c2ccccc21)c1ccc(S(=O)(=O)N2CCCCC2)cc1`, the AC50 under setting [1] is 29.1 µM [rising, single point] and the AC50 under setting [2] was 18.4 µM [falling, single point].

Take `O=C(Nc1ccc(Cl)cc1)C1=Cc2ccccc2OC1`: the AC50 under setting [1] was 11.6 µM [falling, partial curve].

For the compound `c1ccc(Nc2nc(NCCN3CCOCC3)nc(Nc3ccccc3)n2)cc1`, the AC50 under setting [1] is 6.31 µM [falling, partial curve, poor fit].

Turning to `O=C(Nc1nc(-c2cccs2)cs1)c1ccc(Cl)cc1`, the AC50 was 6.51 µM [falling, partial curve, poor fit] under setting [1] and 4.61 µM [rising, partial curve, poor fit] under setting [2].

In the case of `COc1ccccc1NC(=S)NC(NC(C)=O)C(Cl)(Cl)Cl` (configuration not stated), the AC50 under setting [1] was 25.1 µM [falling, partial curve, poor fit].

For `NC(=O)COC(=O)c1ccc(C(=O)C(=O)c2ccccc2)cc1`, the AC50 under setting [1] was 3.55 µM [rising, single point].

As to `O=C(Nc1cccnc1)c1c(O)c2cccc3c2n(c1=O)CC3`, the AC50 under setting [1] is 9.2 µM [falling, single point].

On to `Cc1ccc(C(=O)C=CNNC(=O)c2ccccc2)cc1`, for which the AC50 under setting [1] was 20 µM [falling, partial curve].

`O=C(CSc1nc(-c2ccccc2)cs1)Nc1cccc([N+](=O)[O-])c1`: the AC50 under setting [1] is 29.1 µM [falling, single point].

For the compound `CCC(=O)[C@@]1(C)[C@H](C)C[C@H]2[C@@H]3CCC4=CC(=O)C=C[C@]4(C)[C@H]3[C@@H](O)C[C@@]21C`, the AC50 was 2.59 µM [rising, partial curve] under setting [1] and 7.31 µM [falling, partial curve, poor fit] under setting [2].

Take `C=CCOc1ccc(/C=C(\C#N)C(=O)Nc2ccccn2)cc1OC`: the AC50 under setting [1] is 20 µM [rising, single point].

Regarding `COc1ccc(OC)c(-c2nnc3n2N=C(c2ccc(OC)c(OCC4CC4)c2)CS3)c1`, the AC50 reads like this: under setting [1], 0.259 µM [rising, partial curve, poor fit]; under setting [2], 0.103 µM [falling, full curve].

`COc1ccc(NC(=O)Nc2nc3c(s2)CCCC3)cc1`: under setting [1], the AC50 was 20.6 µM [falling, single point].

`O=C1C=C(NC(=O)Nc2ccc(Cl)c(Cl)c2)CCC1`: the AC50 under setting [1] was 1.78 µM [rising, full curve, poor fit].

For the compound `CCOc1ccc(OCc2cccc(C(=O)Nc3ccc(CN4CCCCC4)cc3)c2)cc1`, the half-maximal activity concentration (AC50) under setting [1] was 29.1 µM [falling, single point].

In the case of `CCC1=NC(c2ccc(Br)cc2)N(O)C1(C)C` (configuration not stated), under setting [1], the AC50 is 11.2 µM [rising, partial curve, poor fit].

Take `S=c1nc(-c2ccc(Cl)cc2)[nH][nH]1`: the AC50 under setting [1] is 17.8 µM [rising, single point].
